Source: US20260276626A1, “METHOD FOR SCREENING THERAPEUTIC AGENT FOR MUSCLE WEAKNESS-RELATED DISEASES” (ENCELL CO., LTD., priority 2023, published 2026)
At least one structure is not confirmed: it was looked up by name or label, or the drawing left a doubt.

Tested on: C2C12 myotubes
Assay: Morphological changes in myotubes by optical microscopic observation
Format: cell-based, mouse
Description: The C2C12 mouse myoblast cell line was cultured in a culture medium containing 90% DMEM/HG, 10% fetal bovine serum (FBS), and 100 unit/ml penicillin/streptomycin at 37° C. under 5% CO2 condition.
100,000 cells were seeded in 6-well plate. After 4 days, the medium was replaced with a differentiation medium containing 5% horse serum and 100 unit/ml penicillin/streptomycin, and 95% DMEM/HG for differentiation into myotubes at 100% confluence. Here, the date on which the culture medium was replaced with the differentiation medium was designated as day 0, and the differentiation medium was replaced with fresh differentiation medium every day from day 3 to day 5.
The medium was removed on day 5 to induce muscle atrophy and/or muscle loss, and the culture medium was treated with mitomycin C (hereinafter referred to as MMC) at concentrations of 20 μM, 40 μM, and 100 μM for 24 hours, respectively. An optical microscopic observation was used to identify changes that occurred during the process of muscle atrophy and/or muscle loss. After a predetermined period of time, the medium was removed, and the cells were treated with 0.25% trypsin-ethylene diamine tetra-acetic acid (EDTA, Gibco), and the cells were collected in a culture medium, followed by centrifugation at 1,500 rpm for 3 minutes. […]

C[C@@H]1C[C@H]2[C@@H]3CCC4=CC(=O)C=C[C@]4(C)[C@@]3(F)[C@@H](O)C[C@]2(C)[C@@]1(O)C(=O)CO [dexamethasone]
induction of muscle atrophy and/or muscle loss (morphology) (100 μM, 24 hours (FIG. 4)): not effectively induced | morphological changes related to sarcopenia (concentration of 100 μM or less (FIG. 4)): did not show significant morphological changes
